Measured values: PubChem BioAssay (NCATS)
Inconclusive means that the source gave no clear call. Such entries were picked first, then a sample of the others. A potency beside an inconclusive call is a rough fit, not a confirmed value. Activity calls are given as the source filed them. Calls come from the whole dose curve; as a rule, active = well fitted curve in the direction sought with a large enough effect; inconclusive = small, poorly fitted or top-dose-only effect, or another doubt; inactive = no such curve, though single readings can be large; an effect the other way counts as inactive or inconclusive.

Legend:
[1] = Quantitative High-Throughput drug screen in 47 multiple myeloma cell lines against the NCATS MIPE library collection: JIM3_ECACC cell viability assay (AID 1918963; note: nearly all actives have a fitted effect of over 35% in size); settings: JIM3 myeloma viability, CellTiter-Glo ATP, 48 h; series mostly up to 45.8 µM
Summary of the method: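 Primary qHTS used for cherry-picking: cells at 500/well, library compounds for 48 h (37C, 5% CO2), luminescent ATP assay.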

[2] = Quantitative High-Throughput drug screen in 47 multiple myeloma cell lines against the NCATS MIPE library collection: JIM1_ECACC cell viability assay (AID 1918964); settings: JIM1 myeloma viability, CellTiter-Glo ATP luminescence, 48 h; viability (% of DMSO): at 45.8 µM (top of the series)
Summary of the method: (§1)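 Luminescent ATP measurement with CellTiter-Glo gives viability, scaled between DMSO-only wells (100%) and media-only wells (0%). Cells, 500 per well, faced library compounds for 48 hours at 37C.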

[3] = Quantitative High-Throughput drug screen in 47 multiple myeloma cell lines against the NCATS MIPE library collection: INA6_PLB cell viability assay (AID 1918965; note: nearly all actives have a fitted effect of over 55% in size); settings: INA6 myeloma viability, CellTiter-Glo ATP luminescence, 48 h; viability (% of control): at 45.8 µM (top of the series)
Summary of the method: (§2)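 We plated 500 myeloma cells per well, pinned in MIPE 4.0 compounds, and incubated for 48 hours at 37C. ATP was then quantified with CellTiter-Glo, with DMSO and media-only wells defining 100% and 0%.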

[4] = Quantitative High-Throughput drug screen in 47 multiple myeloma cell lines against the NCATS MIPE library collection: JJN3_DSMZ cell viability assay (AID 1918966; note: nearly all actives have a fitted effect of over 50% in size); settings: JJN3 myeloma cells viability, CellTiter-Glo ATP, 48 h; series mostly up to 45.8 µM
Summary of the method: as §1

[5] = Quantitative High-Throughput drug screen in 47 multiple myeloma cell lines against the NCATS MIPE library collection: H1112_PLB cell viability assay (AID 1918967; note: nearly all actives have a fitted effect of over 30% in size); settings: H1112 myeloma cells viability, ATP luminescence, 48 h; viability: at 45.8 µM (top of the series)
Summary of the method: as §1

[6] = Quantitative High-Throughput drug screen in 47 multiple myeloma cell lines against the NCATS MIPE library collection: Karpas25_ECACC cell viability assay (AID 1918968; note: nearly all actives have a fitted effect of over 35% in size); settings: Karpas25 myeloma viability, CellTiter-Glo ATP, 48 h; viability (% of control): at 45.8 µM (top of the series)
Summary of the method: as §1

[7] = Quantitative High-Throughput drug screen in 47 multiple myeloma cell lines against the NCATS MIPE library collection: KMS12BM_JCRB cell viability assay (AID 1918971); note: nearly all actives have a fitted effect of over 35% in size
Summary of the method: (§3)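 Steps: seed 500 cells per well; pin-transfer MIPE 4.0 library; incubate 48 h at 37C, 5% CO2, humidified; add CellTiter-Glo, 5 min room temperature; read luminescence.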

[8] = Quantitative High-Throughput drug screen in 47 multiple myeloma cell lines against the NCATS MIPE library collection: KMS20_JCRB cell viability assay (AID 1918973); settings: CellTiter-Glo ATP, 48 h; viability (% of DMSO): at 45.8 µM (top of the series); note: nearly all actives have a fitted effect of over 45% in size
Summary of the method: as §1

[9] = Quantitative High-Throughput drug screen in 47 multiple myeloma cell lines against the NCATS MIPE library collection: KMS21BM_JCRB cell viability assay (AID 1918974); settings: ATP luminescence, 48 h; viability: at 45.8 µM (top of the series) unless noted
Summary of the method: as §1

[10] = Quantitative High-Throughput drug screen in 47 multiple myeloma cell lines against the NCATS MIPE library collection: KMS26_JCRB cell viability assay (AID 1918975); settings: KMS26 myeloma cells viability, CellTiter-Glo ATP, 48 h; viability (% of DMSO): at 45.8 µM (top of the series); note: nearly all actives have a fitted effect of over 45% in size
Summary of the method: as §3

[11] = Quantitative High-Throughput drug screen in 47 multiple myeloma cell lines against the NCATS MIPE library collection: MMM1_PLB cell viability assay (AID 1918976); note: nearly all actives have a fitted effect of over 35% in size
Summary of the method: (§4)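 Plated at 500 cells per well, myeloma lines received MIPE 4.0 compounds by pin tool. Following 48 h culture at 37 °C, CellTiter-Glo luminescence gave viability relative to DMSO and media-only controls.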

[12] = Quantitative High-Throughput drug screen in 47 multiple myeloma cell lines against the NCATS MIPE library collection: MOLP8_DSMZ cell viability assay (AID 1918977); settings: MOLP8 myeloma viability, CellTiter-Glo ATP luminescence, 48 h; viability (% of control): at 45.8 µM (top of the series); note: nearly all actives have a fitted effect of over 45% in size
Summary of the method: as §4

[13] = Quantitative High-Throughput drug screen in 47 multiple myeloma cell lines against the NCATS MIPE library collection: MM1S_ATCC cell viability assay (AID 1918980); note: nearly all actives have a fitted effect of over 45% in size
Summary of the method: as §4

[14] = Quantitative High-Throughput drug screen in 47 multiple myeloma cell lines against the NCATS MIPE library collection: MM1R_ATCC cell viability assay (AID 1918981); note: nearly all actives have a fitted effect of over 35% in size
Summary of the method: as §4

[15] = Quantitative High-Throughput drug screen in 47 multiple myeloma cell lines against the NCATS MIPE library collection: LP1_DSMZ cell viability assay (AID 1918982); note: nearly all actives have a fitted effect of over 35% in size
Summary of the method: as §4

[16] = Quantitative High-Throughput drug screen in 47 multiple myeloma cell lines against the NCATS MIPE library collection: KMS28PE_JCRB cell viability assay (AID 1918983); note: nearly all actives have a fitted effect of over 35% in size
Summary of the method: as §4

[17] = Quantitative High-Throughput drug screen in 47 multiple myeloma cell lines against the NCATS MIPE library collection: KMS27_JCRB cell viability assay (AID 1918970); settings: KMS27 myeloma cells, CellTiter-Glo ATP viability, 48 h; viability (% of DMSO): at 45.8 µM (top of the series); note: nearly all actives have a fitted effect of over 30% in size
Summary of the method: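 ATP-based viability (CellTiter-Glo luminescence) is measured in cells treated 48 h with approved and investigational drugs at 37 °C. Controls are DMSO-only wells for full viability and media-only wells for none.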

[18] = Quantitative High-Throughput drug screen in 47 multiple myeloma cell lines against the NCATS MIPE library collection: KMS12PE_JCRB cell viability assay (AID 1918972); settings: KMS12PE myeloma viability, CellTiter-Glo ATP, 48 h; viability: at 45.8 µM (top of the series); note: nearly all actives have a fitted effect of over 30% in size
Summary of the method: as §2

[19] = Quantitative High-Throughput drug screen in 47 multiple myeloma cell lines against the NCATS MIPE library collection: NCIH929_DSMZ cell viability assay (AID 1918978); note: nearly all actives have a fitted effect of over 35% in size
Summary of the method: as §4

[20] = Quantitative High-Throughput drug screen in 47 multiple myeloma cell lines against the NCATS MIPE library collection: OCIMY1_PLB cell viability assay (AID 1918979); note: nearly all actives have a fitted effect of over 35% in size
Summary of the method: as §4

Measured: Potency
Potency is the fitted concentration of half-maximal effect.

N[C@H]1CN(c2c(F)cc3c(=O)c(C(=O)O)cn(C4C[C@@H]4F)c3c2Cl)CC12CC2 (stereo not given in full)
inconclusive: [3] 0.0037 µM [rising, full curve, poor fit] | [4] 5.26 µM [cytotoxic, partial curve, poor fit] | [6] 0.0017 µM [rising, full curve, poor fit] | [7] 3.32 µM [cytotoxic, full curve, poor fit] | [9] 8.33 µM [rising, full curve] | [11] 14.8 µM [cytotoxic, single point] | [12] 10.5 µM [cytotoxic, partial curve, poor fit] | [16] 13.2 µM [cytotoxic, partial curve, poor fit]
active: [10] 16.6 µM
inactive: [1] | [2] | [5] | [8] | [13] | [14] | [15]

CN[C@@H]1[C@@H](O)[C@@H](O[C@@H]2[C@@H](O)[C@H](O[C@H]3O[C@H](CN)[C@@H](O)[C@H](O)[C@@H]3O)[C@@H](N)C[C@@H]2NC(=O)[C@@H](O)CN)OC[C@]1(C)O
inconclusive: [1] 0.0013 µM [rising, full curve, poor fit] | [6] 23.5 µM [cytotoxic, partial curve] | [17] 0.0017 µM [cytotoxic, full curve, poor fit] | [7] 16.6 µM [cytotoxic, partial curve, poor fit] | [18] 0.0469 µM [cytotoxic, full curve, poor fit] | [8] 0.0187 µM [rising, full curve, poor fit] | [9] 18.7 µM [rising, partial curve, poor fit] | [10] 0.0012 µM [rising, full curve, poor fit] | [12] 0.001 µM | [13] 26.4 µM [cytotoxic, single point]
inactive: [2] | [3] | [4] | [19] | [20] | [14] | [15]

COc1cc(N2CCC(N3CCN(C)CC3)CC2)ccc1Nc1ncc(Cl)c(Nc2ccccc2S(=O)(=O)C(C)C)n1
inactive: [6] | [20]
inconclusive: [1] 1.05 µM [cytotoxic, full curve] | [2] 37.2 µM [rising, single point] | [3] 1.18 µM [cytotoxic, full curve, poor fit] | [4] 14.8 µM [cytotoxic, partial curve, poor fit] | [5] 5.26 µM [cytotoxic, full curve] | [17] 4.18 µM [cytotoxic, partial curve, poor fit] | [7] 26.4 µM [cytotoxic, partial curve, poor fit] | [18] 37.2 µM [rising, single point] | [8] 1.05 µM [cytotoxic, full curve] | [9] 37.2 µM [rising, partial curve] | [10] 11.8 µM [cytotoxic, partial curve, poor fit] | [11] 0.0033 µM [rising, full curve, poor fit] | [12] 0.0053 µM [rising, full curve, poor fit] | [19] 2.35 µM [cytotoxic, full curve] | [13] 0.235 µM [cytotoxic, full curve, poor fit] | [14] 0.418 µM [cytotoxic, full curve, poor fit] | [15] 33.2 µM [cytotoxic, single point] | [16] 0.833 µM [cytotoxic, full curve, poor fit]

CCOC(CN1C(=O)[C@](CC(=O)Nc2ccc(C)cc2)(NC(=O)Nc2ccc(C)cc2)c2ccccc21)OCC
active: [3] 23.5 µM | [17] 26.4 µM | [11] 23.5 µM
inconclusive: [1] 26.4 µM [cytotoxic, single point] | [2] 23.5 µM [cytotoxic, partial curve, poor fit] | [4] 26.4 µM [cytotoxic, single point] | [6] 26.4 µM [cytotoxic, single point] | [7] 26.4 µM [cytotoxic, single point] | [18] 29.6 µM [cytotoxic, single point] | [8] 37.2 µM [cytotoxic, single point] | [9] 33.2 µM [cytotoxic, partial curve, poor fit] | [10] 23.5 µM [cytotoxic, partial curve] | [19] 33.2 µM [cytotoxic, single point] | [20] 37.2 µM [cytotoxic, single point] | [13] 37.2 µM [cytotoxic, single point] | [14] 33.2 µM [cytotoxic, single point] | [16] 37.2 µM [cytotoxic, single point]
